One test addresses HSF1 (UniProt Q00613). The test is described as follows: DAPPL (digital affinity profiling via proximity ligation, sequencing). To be noted: 10 mM Tris-HCl pH 7.5, 50 mM NaCl, 1 mM DTT, 4% glycerol, room temperature, 30 min; GST-TFs on glutathione beads, 16-mer random dsDNA library, 0.1% …; high values mean tight binding; double strand, one strand shown; scale: fold enrichment (6-mer frequency, TF over GST control).

The chains behind the UniProt entries cited, without tags or fusion partners. Where a name states a change or a piece, a line headed by the entry shows the natural chain unless it says otherwise.
UniProt Q00613: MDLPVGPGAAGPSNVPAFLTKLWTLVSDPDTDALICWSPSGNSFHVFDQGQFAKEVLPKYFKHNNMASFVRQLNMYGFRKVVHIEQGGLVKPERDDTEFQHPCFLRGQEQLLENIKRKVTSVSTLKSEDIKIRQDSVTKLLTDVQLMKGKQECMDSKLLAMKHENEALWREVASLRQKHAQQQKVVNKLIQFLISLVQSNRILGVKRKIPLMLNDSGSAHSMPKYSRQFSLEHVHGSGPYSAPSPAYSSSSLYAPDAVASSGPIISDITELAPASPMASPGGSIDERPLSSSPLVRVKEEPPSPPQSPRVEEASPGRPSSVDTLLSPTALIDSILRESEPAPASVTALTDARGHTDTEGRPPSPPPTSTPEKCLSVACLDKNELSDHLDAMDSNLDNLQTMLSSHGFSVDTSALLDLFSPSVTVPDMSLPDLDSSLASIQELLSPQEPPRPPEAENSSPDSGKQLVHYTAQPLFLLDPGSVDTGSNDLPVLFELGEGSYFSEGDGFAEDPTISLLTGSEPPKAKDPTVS

For a further test, the target named is T1, ELF2 (UniProt Q15723).
T1 sequence: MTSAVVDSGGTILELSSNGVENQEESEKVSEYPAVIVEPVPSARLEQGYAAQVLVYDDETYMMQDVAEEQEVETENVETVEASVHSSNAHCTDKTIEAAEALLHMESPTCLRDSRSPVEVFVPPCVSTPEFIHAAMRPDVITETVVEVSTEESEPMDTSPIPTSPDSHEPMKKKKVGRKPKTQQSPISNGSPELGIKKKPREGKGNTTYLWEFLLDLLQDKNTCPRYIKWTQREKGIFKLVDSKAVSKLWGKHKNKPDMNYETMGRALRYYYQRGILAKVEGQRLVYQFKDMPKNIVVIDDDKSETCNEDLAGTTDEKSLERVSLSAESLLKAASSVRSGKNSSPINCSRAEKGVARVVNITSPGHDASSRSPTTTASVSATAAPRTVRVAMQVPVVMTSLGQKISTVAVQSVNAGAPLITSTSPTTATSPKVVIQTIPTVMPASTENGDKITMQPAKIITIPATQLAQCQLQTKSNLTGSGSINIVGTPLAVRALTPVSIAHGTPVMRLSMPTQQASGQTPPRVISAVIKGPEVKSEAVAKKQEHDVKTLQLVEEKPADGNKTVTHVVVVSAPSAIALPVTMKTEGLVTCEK
Described as above. To be noted: 10 mM Tris-HCl pH 7.5, 50 mM NaCl, 1 mM DTT, 4% glycerol, room temperature, 30 min; GST-TFs on glutathione beads, 16-mer random dsDNA library, 0.1% …; high values mean tight binding; double strand, one strand shown; scale: fold enrichment (6-mer frequency, TF over GST control).

The entries are a selection whose mix differs from that of the whole data set. For part of these data: At the low end of the ranking the order means little. The list shows a part of the results. For part of these data: The source does not settle which construct or isoform was used.

Take CAACGC: the binding signal was 0.803 with HSF1 and 1 with ELF2.
The like results for TATCTT were, in that order, 1.48 and 1.3.
The like results for AACACC were, in that order, 0.985 and 1.08.
On the same counts, the results for ACTGTC are 0.822 and 0.914.
With CACTGA, the binding signal was found to be 0.915 in the test with HSF1 and 0.94 with ELF2.
The like results for GCAAGC were, in that order, 0.788 and 0.906.
Turning to CACATA, the figures for the binding signal in the test with HSF1 and in the test with ELF2 were 0.992 and 1.12, respectively.
Regarding CAACCC, the binding signal turned out to be 0.908 with HSF1 and 1.27 with ELF2.
The like results for GTCTCG were, in that order, 1.55 and 1.2.
The like results for TCATCT were, in that order, 1.44 and 1.11.
On to TTAGCA, for which the binding signal was 1.7 with HSF1 and 1.16 in the test with ELF2.
The like results for TGGCAC were, in that order, 1.03 and 1.09.
On the same counts, the results for TTTGTG are 1.12 and 1.1.
The like results for CGTAAC were, in that order, 0.925 and 1.13.
Turning to TCAACT, the values for the binding signal in the test with HSF1 and with ELF2 were 1.2 and 1.27, respectively.
On the same counts, the results for TTGGTC are 0.946 and 0.979.
The like results for ACAACC were, in that order, 0.937 and 1.23.
On the same counts, the results for CAATTT are 1.15 and 1.42.
Consider CACAAA, for which the binding signal with HSF1 was 1.02; with ELF2 it was 1.06.
Regarding TATTAG, the binding signal with HSF1 is 1.42; in the test with ELF2, 1.02.
As to CACAAC, the binding signal with HSF1 came to 0.896; with ELF2, 1.22.
The like results for ACGTTT were, in that order, 1.05 and 1.23.
Turning to GCGACA, the binding signal was found to be 0.751 with HSF1 and 0.942 with ELF2.
AGCATA: the binding signal with HSF1 turned out to be 1.04; with ELF2, 0.93.
Regarding CCCTAT, the results for the binding signal with HSF1 and with ELF2 were 1.13 and 1.34, respectively.
On the same counts, the results for CAAAGC are 1.04 and 1.06.
On the same counts, the results for ACGGCA are 0.82 and 1.01.
On the same counts, the results for CATTCA are 0.967 and 1.01.
Regarding GCTAGC, the binding signal was 1.19 with HSF1 and 1.13 in the test with ELF2.
Consider AAGGGT, for which the binding signal is 0.95 with HSF1 and 0.956 in the test with ELF2.
The like results for CGTTAT were, in that order, 0.992 and 1.09.
The like results for GACTGC were, in that order, 0.779 and 0.953.
On the same counts, the results for ACTGTT are 1.03 and 1.14.
With CACAGC, the results for the binding signal in the test with HSF1 and in the test with ELF2 were 0.78 and 0.987, respectively.
Take CCCCGT: the binding signal came to 0.893 with HSF1 and 0.997 with ELF2.
For CTCGAG, the binding signal in the test with HSF1 stood at 2; in the test with ELF2, 1.1.
On the same counts, the results for ACGCAC are 0.855 and 1.02.
Take TTAGAG: the binding signal in the test with HSF1 was determined as 1.25; with ELF2 it was 0.838.
On the same counts, the results for GCGACC are 0.854 and 1.06.
For the sequence TGCTCG, the binding signal with HSF1 came to 1.56; in the test with ELF2 it was 1.15.
On the same counts, the results for GGATGT are 0.824 and 1.89.
As to CAGCAT, the binding signal with HSF1 worked out at 0.977; with ELF2, 0.957.
The like results for AGTCTT were, in that order, 0.981 and 0.961.
On the same counts, the results for ACAATT are 1.18 and 1.3.
Consider TGGTAA, for which the values for the binding signal with HSF1 and with ELF2 were 1.45 and 1.2, respectively.
The like results for ATTGCA were, in that order, 1.06 and 1.11.
The like results for GTTTTG were, in that order, 0.948 and 1.2.
The like results for AGTTTA were, in that order, 0.967 and 0.959.
As to CGACTG, the figures for the binding signal with HSF1 and with ELF2 were 1.02 and 0.976, respectively.
The like results for TAGTGC were, in that order, 1.02 and 0.989.
On the same counts, the results for CGATCA are 1.22 and 0.984.
On the same counts, the results for GTACGC are 0.823 and 1.07.
As for GGTATC, the binding signal with HSF1 is 0.839; in the test with ELF2, 1.07.
On the same counts, the results for AGCTGT are 0.937 and 0.922.
On the same counts, the results for ATCACG are 0.992 and 0.959.
On the same counts, the results for GCGTTA are 0.934 and 0.923.
In the case of TACCTT, the binding signal was found to be 1.3 with HSF1 and 1.38 with ELF2.

Source of the values: publication PMC7862700.
